Article PMC8867190

Experiments:
Assay in all cases: electrochemical strand displacement (SWV)
[1] = system: Follicle-stimulating hormone (FSH); details: 1 uM FSH, current for LH about 1.5-fold larger than for FSH; 10 mM phosphate buffer, 1 M NaCl, pH 7.4, room temperature; 30 nM aptamer/signal duplex (prepared in 20 mM Tris, 50 mM MgCl2, pH 8.0, diluted 60 uL into 1940 uL PBS); commercial protein; folded or branched DNA
Serum albumin (SAB) = details: 1 uM, apparent decrease in SWV current response; 10 mM phosphate buffer, 1 M NaCl, pH 7.4, room temperature; 30 nM aptamer/signal duplex (prepared in 20 mM Tris, 50 mM MgCl2, pH 8.0, diluted 60 uL into 1940 uL PBS); commercial protein; folded or branched DNA
[2] = system: Thyroid stimulating hormone (TSH); details: 1 uM, apparent decrease in SWV current response; 10 mM phosphate buffer, 1 M NaCl, pH 7.4, room temperature; 30 nM aptamer/signal duplex (prepared in 20 mM Tris, 50 mM MgCl2, pH 8.0, diluted 60 uL into 1940 uL PBS); commercial protein; folded or branched DNA

Measured: binding result

TATGGTATGCTGTGTGGTATGGGGTGGCGTGCTCT [LH aptamer]
binds more weakly: all assays above

Construct, isoform or probe ends are uncertain for at least one entry. The comparison behind a weaker result is the experiment's own reference, which may not be listed here.
